Assay results reported in US20110306554A1, “PEPTIDE CAPABLE OF BINDING TO IMMUNOGLOBULIN” (priority 2009, published 2011).
“Also recorded” adds a separate entry of the source. At least one peptide structure holds a part that was inferred or is arguable (an end, a ring closure or a residue). Non-standard residues stand in square brackets, D forms with d. Residues, ends and D or L forms follow the SMILES beside them.

Columns and labels:
[1] = tested on: Monoclonal antibody cocktail-induced arthritis mice; test: Arthritis suppressing effects on arthritis-induced mice, Part 4; type: in vivo; conditions: intraperitoneal 10 or 100 mg/kg once a day from day 4; methotrexate 0.1 mg/kg
Experimental: Monoclonal antibody cocktail-induced arthritis mice were used to examine arthritis suppressing effects of peptides which are indicated as R13 in the section (3) in Example 2 and as R19 and R21 in the section (4) in Example 2. Arthritis was caused by intravenous administration of 2 mg/mouse of an arthritis-inducing monoclonal antibody cocktail and three days later, intraperitoneal administration of 50 μg/mouse of LPS. The peptides […] days from four days after the administration of the arthritis-inducing monoclonal antibody cocktail, and arthritis suppressing effect was examined in terms of clinical score and hind-limb volume determination.
The required amount was calculated for each peptide, based on the animal weight. […]
Measurement of body weight of animals was made on days 0, 3, 6, 9, 12, and 14 during the study period, with day 0 being the day of administration of the arthritis-inducing monoclonal antibody cocktail. Observation of general condition was made on a daily basis. […]
Results of examinations were expressed by mean value±standard error and analyzed using EXSAS (Version 7.1.6, Arm Systex Co., Ltd.). […] Quantitative data, such as body weights and leg volumes, were subjected to Bartlett's test, followed by Dunnett's multiple comparison test when the variance was uniform or Steel's multiple comparison test when the variance was not uniform.

[2] = tested on: type III allergic (Arthus) reaction-induced rats; test: Immune-complex disease suppression in type III allergic (Arthus) reaction-induced rats, Part 2; type: in vivo
Experimental: Using forty-five 7-week-old male Slc:Wistar rats, examinations were made on peptides R13 and R19, in two series of examinations, each using a different method of administration (intraperitoneal administration and tail vein administration). Acclimation was carried out by giving normal solid chow CRF-1 for a period of 6 or 8 days. The back of the animals was shaved on the day prior to administration, and a mixed solution of OVA and Evans blue dye was administered into the tail vein on the day of administration. Each peptide solution was administered intraperitoneally or into the tail vein 30 minutes or 50 minutes after the administration of the mixed solution of OVA and Evans blue dye, respectively. For intracutaneous administration of an anti-OVA solution, […] was intracutaneously administered in the back of animals at a dose of 0.1 ml/site 30 minutes or 10 minutes after the administration of the tested substance in the case of intraperitoneal or intravenous administration, respectively, so as to generate a local Arthus reaction. After the reaction was allowed to be generated for 4 hours, the animals were euthanized, the blood was removed thoroughly, and then the dorsal skin was exfoliated. The Arthus reaction sites on the exfoliated skin were punched out, and the Evans blue dye was extracted from the punched skin overnight. The amount of dye leakage was quantified by measuring absorbance for the Evans blue dye with a spectrophotometer and using a calibration curve.
A suspension was prepared by placing a predetermined amount of hydrocortisone into a mortar, grinding it with pestle, and then adding physiological saline to make the final concentration of 10 mg/ml.
A predetermined amount of each peptide (peptides R13 and R19) was dissolved in physiological saline to make a 20 mg/ml solution. A 2 mg/ml solution was prepared by diluting the 20 mg/ml solution 10-fold with physiological saline. A 5 mg/ml solution was prepared by dissolving each peptide in a predetermined amount in physiological saline to make a prepared solution.
A mixed solution of OVA and Evans blue dye was administered into the tail vein at a dose of 2 ml/kg. Each peptide solution was administered intraperitoneally or into the tail vein 30 minutes or 50 minutes after the administration of the mixed solution of OVA and Evans blue dye, respectively. For intracutaneous administration of an anti-OVA solution, […] was intracutaneously administered in the back of animals at a dose of 0.1 mL/site 30 minutes or 10 minutes after the administration of the tested substance in the case of intraperitoneal or intravenous administration, respectively, so as to generate a local Arthus reaction. Intracutaneous administration was conducted at 2 sites for PBS and at 2 sites for the anti-OVA solution per animal. After the reaction was allowed to be generated for 4 hours, the animals were euthanized by decapitation under ether anesthesia, the blood was removed thoroughly, and then the dorsal skin was exfoliated. The Arthus reaction sites on the exfoliated skin were punched out and subjected to dye extraction.
Several cuttings were made in the skin strips that were punched out with a punch. […] The amount of dye leakage was calculated from a calibration curve of known amounts of the dye.
The mean value (mean)±standard deviation (SD) for each group was calculated with body-weight measurements and amounts of dye leakage. […]

[3] = tail vein administration, 10 mg/kg

## CC(C)C[C@@H](NC(=O)CNC(=O)[C@H]1CCCN1)C(=O)N[C@H](Cc1ccc(O)cc1)C(=O)N[C@H](Cc1ccc(O)cc1)C(=O)N[C@H](Cc1ccccc1)C(=O)O [R13, dPGdLdYdYdF] (H-[dP]G[dL][dY][dY][dF]-OH)
[1]
  arthritis-suppressing effect (clinical score) compared with methotrexate: arthritis-suppressing effect comparable to or greater than that of methotrexate
[2]; intraperitoneal 100 mg/kg vs hydrocortisone 50 mg/kg
  suppression effect compared with positive control hydrocortisone: stronger suppression effect than that of the group receiving administration of 50 mg/kg of the positive control substance, hydrocortisone
[2]; intraperitoneal administration, 100 mg/kg
  suppression (decrease of dye leakage) compared to negative control: about 600%
[2]; intraperitoneal administration, 10 or 100 mg/kg
  suppression effect (dye leakage) compared to negative control: significant suppression effect; also recorded: suppressed
[2]; [3]
  suppression (decrease of dye leakage) compared to negative control: about 70%
  suppression effect (dye leakage) compared to negative control: remarkably significant suppression effect; also recorded: suppressed
